# Test results from the supplement of paper PMC4604168 (melanoma cell lines).
# Some of the results follow. Many values rest on one well or one pass, so single values are uncertain.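 Imaging used 1,536-well plates; nuclei positive for cleaved PARP by antibody were divided by total DNA-stained nuclei to yield the apoptosis fraction. Doses for screening kept most cells viable, and cell lines differ markedly in resting and induced cleaved-PARP levels.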
# Test system: CBRC034 (line from a melanoma biopsy)
# Experiment: cleaved PARP positive nuclei fraction relative to DMSO control; melanoma cells; higher = more apoptosis
# Settings: library dose: low library concentration; 72 h
row,SMILES,cleaved PARP positive nuclei fraction [%]
1,"C[C@@H](N)c1ccc(C(=O)Nc2ccnc3[nH]ccc23)cc1 + Cn1c(=O)n(-c2ccc(C(C)(C)C#N)cc2)c2c3cc(-c4cnc5ccccc5c4)ccc3ncc21 [NVP-BEZ235] (first compound 0.4 µM, partner dose 0.004 µM)",128
2,"Cn1cnc2c(F)c(Nc3ccc(Br)cc3Cl)c(C(=O)NOCCO)cc21 [selumetinib] + Cn1c(Nc2ccc(C(F)(F)F)cc2)nc2cc(Oc3ccnc(-c4ncc(C(F)(F)F)[nH]4)c3)ccc21 [CHIR265] (first compound 0.015 µM, partner dose 0.08 µM)",130
3,"NC1(c2ccc(-c3nc4ccn5c(=O)[nH]nc5c4cc3-c3ccccc3)cc2)CCC1 + Clc1ccc(Nc2nnc(Cc3ccncc3)c3ccccc23)cc1 [vatalanib] (first compound 0.4 µM, partner dose 2 µM)",68.2
4,"CCCCCCCCc1ccc(CCC(N)(CO)CO)cc1 [fingolimod] + OCc1c[nH]c2ccccc12 [Indole-3-carbinol] (first compound 2 µM, partner dose 0.8 µM)",812
5,"Cn1sc(=O)n(Cc2ccccc2)c1=O + Clc1ccc(Nc2nnc(Cc3ccncc3)c3ccccc23)cc1 [vatalanib] (first compound 0.4 µM, partner dose 2 µM)",33.9
6,"NC(=O)c1ccc(N(C(N)=O)c2c(F)cccc2F)nc1-c1ccc(F)cc1F + CC(=O)c1c(C)c2cnc(Nc3ccc(N4CCNCC4)cn3)nc2n(C2CCCC2)c1=O [palbociclib] (first compound 0.4 µM, partner dose 0.04 µM)",49.2
